In paper PMC7862700 one finds binding signal data, which are given here for 55 sequences.

The list shows a part of the results, in another mix than the full data. For part of these data: At the low end of the ranking the order means little. The list shows a part of the results. For part of these data: The source does not settle which construct or isoform was used.

One experiment concerns the target T1, ETS1 (UniProt P14921).
T1 sequence: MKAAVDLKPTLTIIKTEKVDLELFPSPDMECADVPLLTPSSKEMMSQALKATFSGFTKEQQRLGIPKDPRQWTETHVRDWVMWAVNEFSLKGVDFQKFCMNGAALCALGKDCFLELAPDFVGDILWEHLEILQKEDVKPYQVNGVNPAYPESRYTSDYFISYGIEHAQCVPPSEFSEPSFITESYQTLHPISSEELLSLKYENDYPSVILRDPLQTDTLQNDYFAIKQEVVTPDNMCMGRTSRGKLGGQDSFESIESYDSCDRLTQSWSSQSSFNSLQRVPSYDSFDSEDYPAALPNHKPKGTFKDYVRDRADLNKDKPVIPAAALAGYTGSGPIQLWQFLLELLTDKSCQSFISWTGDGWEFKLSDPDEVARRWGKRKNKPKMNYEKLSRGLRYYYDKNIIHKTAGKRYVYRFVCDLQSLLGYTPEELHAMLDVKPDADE
In words: DAPPL (digital affinity profiling via proximity ligation, sequencing). The conditions noted are these: 10 mM Tris-HCl pH 7.5, 50 mM NaCl, 1 mM DTT, 4% glycerol, room temperature, 30 min; GST-TFs on glutathione beads, 16-mer random dsDNA library, 0.1% …; high values mean tight binding; double strand, one strand shown; scale: fold enrichment (6-mer frequency, TF over GST control).

A further experiment deals with T2, GABPA (UniProt Q06546).
T2 sequence: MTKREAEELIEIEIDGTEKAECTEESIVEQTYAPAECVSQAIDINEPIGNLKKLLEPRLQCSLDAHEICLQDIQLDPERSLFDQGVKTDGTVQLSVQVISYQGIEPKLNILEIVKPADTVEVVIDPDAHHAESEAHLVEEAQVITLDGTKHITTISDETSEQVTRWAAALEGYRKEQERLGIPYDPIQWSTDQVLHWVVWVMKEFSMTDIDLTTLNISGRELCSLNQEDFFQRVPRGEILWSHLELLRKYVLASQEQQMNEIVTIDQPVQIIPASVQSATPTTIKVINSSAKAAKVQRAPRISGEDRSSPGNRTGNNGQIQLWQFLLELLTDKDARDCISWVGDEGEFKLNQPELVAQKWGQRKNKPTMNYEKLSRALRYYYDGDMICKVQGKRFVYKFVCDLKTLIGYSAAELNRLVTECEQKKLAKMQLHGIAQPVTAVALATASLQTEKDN
The experiment is described as above. The note with it: 10 mM Tris-HCl pH 7.5, 50 mM NaCl, 1 mM DTT, 4% glycerol, room temperature, 30 min; GST-TFs on glutathione beads, 16-mer random dsDNA library, 0.1% …; high values mean tight binding; double strand, one strand shown; scale: fold enrichment (6-mer frequency, TF over GST control).

Regarding GGGTTC, the binding signal with ETS1 came to 0.961.

As for TCCTGC, in the experiment with ETS1, the binding signal came out at 1.56. As for GAACAA, the binding signal with ETS1 amounted to 1.25. The sequence TTTCCC displayed a binding signal with ETS1 of 1.7. Same read-out and setting: under ACCTTT stands 1.53; under TATACG, 1.26. The same measure, in the same setting: next, TTACGC: 1.11; CTAGGC: 0.998. The same measure, in the same setting: next, GCACTC: 1.2; TTCTGT: 1.22. ATCGAC had a binding signal in the experiment with ETS1 of 1.23.

For the sequence ATTCGA, the binding signal with ETS1 was 1.41. Still for that read-out and setting: under TGGAAT stands 1.25; under GCACAA, 1.06. Regarding TCATAT, the binding signal in the experiment with GABPA was determined as 1.26; with ETS1 it was 1.23.

As for CACACG, the results for the binding signal with GABPA and with ETS1 were 1.23 and 1.11, respectively. On to CGTTGT, for which the binding signal amounted to 1 with GABPA and 1.03 with ETS1.

Regarding GCTAGC, the figures for the binding signal with GABPA and with ETS1 were 1.18 and 1.28, respectively.

With TTTGTT, the binding signal with GABPA stood at 1.31; in the experiment with ETS1, 1.27. For CCTCCT, in that order: 1.57 and 1.6. For ACAATT, in that order: 1.15 and 1.29. For TTCGGT the same measures were 1.13 and 1.12. On to AAGCGC, for which the binding signal came out at 1.12 with GABPA and 1.23 with ETS1.

In the case of CTCCCT, the binding signal came to 1.54 with GABPA and 1.72 with ETS1. For TAGATT the same measures were 1.18 and 1.32. For TGCTCC, in that order: 1.45 and 1.43. For the sequence TATGAT, the binding signal with GABPA worked out at 1.22; with ETS1, 1.23.

As to TCATCC, the binding signal with GABPA was found to be 1.39; in the experiment with ETS1, 1.33. In the case of GCCGGA, the binding signal with GABPA came out at 0.971; in the experiment with ETS1, 0.951.

In the case of GGACCT, the binding signal came out at 1.41 in the experiment with GABPA and 1.43 with ETS1.

As to TGGCAT, the binding signal was 1.2 in the experiment with GABPA and 1.19 in the experiment with ETS1. Turning to GGATGG, the binding signal in the experiment with GABPA stood at 0.983; with ETS1, 1.07. For CGCTAT the same measures were 1.07 and 1.14. Consider TCGTTG, for which the binding signal with GABPA worked out at 0.882; with ETS1, 1.01.

With GAATTA, the binding signal with GABPA was determined as 0.968; with ETS1, 1.04. For ATAGTT the same measures were 1.16 and 1.16. For TGTTAG the same measures were 0.982 and 0.903. For CAATTA, in that order: 1.1 and 1.17. As to CAATGT, the binding signal is 0.964 in the experiment with GABPA and 1.1 with ETS1. For TTGAAG, in that order: 0.905 and 0.929. For the sequence AACACG, the binding signal in the experiment with GABPA came to 1.1; with ETS1 it was 1.2. For TAGGGT the same measures were 1.11 and 1.09.

Consider TCCTGA, for which the binding signal amounted to 1.47 in the experiment with GABPA and 1.38 with ETS1. For CCGGTC, in that order: 0.973 and 1.17. For GTCTAT, in that order: 0.986 and 0.967.

For the sequence GAAATT, the binding signal with GABPA turned out to be 1.29; with ETS1 it was 1.31. CCTGAC: the binding signal with GABPA came out at 1.49; in the experiment with ETS1 it was 1.53.

For the sequence CCTGTG, the results for the binding signal with GABPA and with ETS1 were 1.08 and 1.25, respectively.

In the case of TTTTTT, the binding signal is 1.25 with GABPA and 1.24 in the experiment with ETS1. ACGGAT: the results for the binding signal with GABPA and with ETS1 were 1.21 and 1.25, respectively. For CAATAC, in that order: 1.23 and 1.26. As for ATATCT, the binding signal with GABPA was 1.26; in the experiment with ETS1, 1.17. For GCAACT the same measures were 1.19 and 1.27.

In the case of GCTAAA, the figures for the binding signal with GABPA and with ETS1 were 1.07 and 1.12, respectively. For TCAAGT the same measures were 1.07 and 1.15.
